From patent US6957150
These are yes or no findings as the source states them, for the method shown. Some entries that bind do so weakly or less than the wild type.

Tests used:
[1] = molecular target: Acyl Carrier Protein Synthase (ACPS) from B. subtilis, mutant with proline instead of glutamine at residue 96 (B. subtilis) (UniProt P96618); test: sedimentation equilibrium analytical ultracentrifugation, pH 6.4, 25 deg C
[2] = molecular target: Acyl Carrier Protein Synthase (ACPS) from B. subtilis, mutant with proline instead of glutamine at residue 96 (B. subtilis) (UniProt P96618); test: X-ray crystal structure, P21 form
[3] = molecular target: Acyl Carrier Protein Synthase (ACPS) from B. subtilis, mutant with proline instead of glutamine at residue 96 (B. subtilis) (UniProt P96618); test: X-ray crystal structure of the ACPS-CoA complex, R3 form
[4] = molecular target: Acyl Carrier Protein Synthase (ACPS) from B. subtilis, mutant with proline instead of glutamine at residue 96 (B. subtilis) (UniProt P96618); test: 15% non-reducing denaturing gels before and after centrifugation

Measured: binding

B1: Acyl Carrier Protein Synthase (ACPS) from B. subtilis, mutant with proline instead of glutamine at residue 96 (enzyme, not shown: small tags and cut ends)
chain: MIYGIGLDITELKRIASMAGRQKRFAERILTRSELDQYYELSEKRKNEFLAGRFAAKEAFSKAFGTGIGRQLSFQDIEIRKDQNGKPYIICTKLSPAAVHVSITHTKEYAAAQVVIERLSS
binds: all assays above
